Paper PMC6465387

The chains behind the UniProt entries cited, without tags or fusion partners. Where a name states a change or a piece, a line headed by the entry shows the natural chain unless it says otherwise.
UniProt B7EQ08: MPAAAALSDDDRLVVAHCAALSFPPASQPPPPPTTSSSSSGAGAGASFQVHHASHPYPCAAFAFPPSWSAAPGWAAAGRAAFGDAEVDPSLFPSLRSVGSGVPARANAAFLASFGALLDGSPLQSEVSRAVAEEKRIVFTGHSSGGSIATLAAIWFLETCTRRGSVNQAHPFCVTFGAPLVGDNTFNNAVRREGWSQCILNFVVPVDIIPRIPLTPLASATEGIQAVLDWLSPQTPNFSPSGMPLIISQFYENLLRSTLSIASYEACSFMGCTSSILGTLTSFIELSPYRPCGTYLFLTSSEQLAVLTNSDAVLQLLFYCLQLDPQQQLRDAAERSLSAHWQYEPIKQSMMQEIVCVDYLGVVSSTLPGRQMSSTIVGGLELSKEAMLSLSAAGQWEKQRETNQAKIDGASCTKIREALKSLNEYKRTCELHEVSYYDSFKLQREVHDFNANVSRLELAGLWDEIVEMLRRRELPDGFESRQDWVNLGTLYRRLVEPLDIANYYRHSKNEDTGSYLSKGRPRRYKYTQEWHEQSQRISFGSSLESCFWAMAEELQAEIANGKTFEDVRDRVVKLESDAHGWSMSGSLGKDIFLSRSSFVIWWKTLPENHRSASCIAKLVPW

Molecular target: T1, AtPAD4-nYFP (Arabidopsis (Col-0)) (UniProt Q9S745)
T1 sequence: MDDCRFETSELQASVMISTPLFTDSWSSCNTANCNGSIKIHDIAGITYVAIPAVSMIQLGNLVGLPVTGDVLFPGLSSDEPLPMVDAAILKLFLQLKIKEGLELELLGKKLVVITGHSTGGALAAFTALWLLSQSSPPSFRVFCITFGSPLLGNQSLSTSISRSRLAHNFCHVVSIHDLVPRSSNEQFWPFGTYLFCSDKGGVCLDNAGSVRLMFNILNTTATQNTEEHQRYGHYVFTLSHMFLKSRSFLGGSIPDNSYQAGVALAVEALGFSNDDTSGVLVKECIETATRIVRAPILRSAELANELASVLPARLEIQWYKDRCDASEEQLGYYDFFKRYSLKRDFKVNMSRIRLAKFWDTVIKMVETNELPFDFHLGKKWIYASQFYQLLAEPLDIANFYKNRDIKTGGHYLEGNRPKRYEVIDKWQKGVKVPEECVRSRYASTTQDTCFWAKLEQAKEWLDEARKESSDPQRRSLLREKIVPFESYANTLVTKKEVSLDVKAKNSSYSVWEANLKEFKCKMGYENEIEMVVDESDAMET
Test: split reporter; BiFC in rice variety Zhonghua 11 stem protoplasts co-transformed with nYFP and cYFP constructs; confocal microscopy

With OsEDS1-cYFP (from UniProt B7EQ08) the binding was “binds”.

These are yes or no findings as the source states them, for the method shown. In cells and extracts the contact can be indirect. A result given as binding can be weak or reduced; the word gives no strength. Sequences can lack the tags named with a protein.
